PubChem BioAssay AID1259254 – NCATS | 2017
Screen: 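Gene knock-downs that lead to re-replication, shown by excess G2 DNA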 (primary screen). Cell system: human HCT116 colorectal cancer cells. Reagent: single siRNA against human genes. Time to read-out: 3 days. Read-out: 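Nuclei stained with Hoechst and imaged; cell-cycle phase assigned by DNA content; G2 share scaled per plate, non-targeting siRNA 0%, GMNN siRNA 100%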. Direction: G2 robust z-score and G2 cells, % of GMNN control: higher = more G2 cells, more excess DNA replication. Call rule: 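An siRNA counts as active if its G2 robust z-score lies at least 5 MADs above the screen median; here such calls match roughly 38% of GMNN control or more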.
The whole screen tested about 59,000 reagents; this is a random part of them. About 1,550 of all reagents (2.6%) were called active. 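G2 share is only a proxy for re-replication; each gene was hit by three separate siRNAs, and active genes were retested.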 Reagents against one gene are numbered here. Further read-outs or replicates are left out here. Not stated in the record: the amount of reagent.

ACOT8 #1
- G2 robust z-score: 0.285
- G2 cells, % of GMNN control: 4.97
- Call: inactive

ACOT8 #2
- G2 robust z-score: -1.05
- G2 cells, % of GMNN control: -4.44
- Call: inactive

ACOT8 #3
- G2 robust z-score: 2.19
- G2 cells, % of GMNN control: 18.4
- Call: inactive

NEIL3 #1
- G2 robust z-score: -1.1
- G2 cells, % of GMNN control: -4.78
- Call: inactive

NEIL3 #2
- G2 robust z-score: 1
- G2 cells, % of GMNN control: 10
- Call: inactive

NEIL3 #3
- G2 robust z-score: -0.621
- G2 cells, % of GMNN control: -1.4
- Call: inactive

MACO1 #1
- G2 robust z-score: -1.05
- G2 cells, % of GMNN control: -4.4
- Call: inactive

MACO1 #2
- G2 robust z-score: 0.426
- G2 cells, % of GMNN control: 5.97
- Call: inactive

MACO1 #3
- G2 robust z-score: -0.867
- G2 cells, % of GMNN control: -3.13
- Call: inactive

HPS3 #1
- G2 robust z-score: 2.65
- G2 cells, % of GMNN control: 21.6
- Call: inactive

HPS3 #2
- G2 robust z-score: 3.13
- G2 cells, % of GMNN control: 25
- Call: inactive

HPS3 #3
- G2 robust z-score: -0.293
- G2 cells, % of GMNN control: 0.904
- Call: inactive

AURKC #1
- G2 robust z-score: -0.666
- G2 cells, % of GMNN control: -1.72
- Call: inactive

AURKC #2
- G2 robust z-score: 0.147
- G2 cells, % of GMNN control: 4
- Call: inactive

AURKC #3
- G2 robust z-score: -0.679
- G2 cells, % of GMNN control: -1.81
- Call: inactive

ZDHHC24 #1
- G2 robust z-score: 1.55
- G2 cells, % of GMNN control: 13.9
- Call: inactive

ZDHHC24 #2
- G2 robust z-score: 1.21
- G2 cells, % of GMNN control: 11.5
- Call: inactive

ZDHHC24 #3
- G2 robust z-score: 3.09
- G2 cells, % of GMNN control: 24.7
- Call: inactive

2 consecutive records already listed:
AURKC #2
- G2 robust z-score: 0.147
- G2 cells, % of GMNN control: 4
- Call: inactive

AURKC #3
- G2 robust z-score: -0.679
- G2 cells, % of GMNN control: -1.81
- Call: inactive
